What was measured:
mouse ADAMTS7 [1] = assay: TMT10 TAILS N-terminomics, SMC1 experiment (Ad-mADAMTS7 WT vs EQ vs Luc, technical replicates, trypsin digest); type: cell-based; conditions: for SMC1 TAILS.total Intensity: TAILS HC Overlap, total intensity of the peptide
In short: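 Full-length mouse ADAMTS7 (WT or E373Q mutant, C-terminal 3xFLAG) or luciferase was transduced via adenovirus, 50 MOI, into HCA-SMC (SMC1, SMC2) or HUVEC. SMC1: pooled media, technical triplicates 400 ug; SMC2: process triplicates 300 ug; HUVEC: process triplicates 200 ug, bFGF2 10 ng/ml.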

mouse ADAMTS7 [2] = assay: TMT10 TAILS N-terminomics, SMC2 experiment (process replicates, trypsin/AspN digest); type: cell-based; conditions: for SMC2 TAILS.total Intensity: SMC2 experiment, total intensity of the N-terminal (TAILS) peptide
From the text: (§1) ADAMTS7 Expression, Cell Culture and Preparation of the Secreted Proteins—Full-length mouse Adamts7 1-1857 (Uniprot Q68SA9, WT or E373Q catalytic mutant) with a carboxyl terminal 3xFLAG tag was used to generate custom adenoviruses as previously described. Adeno-CMV-Luciferase (Ad-Luc) from Vector Biolabs was used as a negative control. Human Coronary Artery Smooth Muscle Cells (HCA-SMC) were obtained from Lonza and expanded in Lonza SmGM-2 media in 15 cm tissue culture plates. Twenty-four hours before media collection, near confluent plates were transduced with 50 MOI adenovirus and switched to Lonza Basal SM media with volumes of 20 ml per 15 cm plate. Expression of the Flag tagged ADAMTS7 was confirmed from the media using western blot and detected using the anti-Flag M2-HRP antibody (Sigma, A8592). Collected media was processed by adding protease inhibitors (1 mM EDTA and 1 mM PMSF) and clarified by 500 g×5 min spin at 4 C to pellet cell debris. Cell media supernatants were then passed through a 0.22 um filter and kept chilled. Processed media was then concentrated 50-100× using 3 kDa Centricon Plus-70 filter unit, spun at 3,500 g×60 min at 4 C. Approximately 10% of the processed, concentrated media was set aside for total secretome proteolytic analysis. The remaining 90% of the processed, concentrated media was buffer exchanged into 50 mM HEPES pH 8.0, 150 mM NaCl (2×50 ml) using the 3 kDa Centricon Plus-70 filter unit and concentrated to >2 mg/ml to serve as input for the TAILS experiment. Secretome and TAILS input samples were stored at −80° C.
(§2) For the first experiment, referred to as SMC1, 120 ml of media from 6×15 cm dishes was pooled from each condition (Luc, WT, EQ) and processed to produce three separate inputs for the TAILS experiment. Luc, WT and EQ inputs from the SMC1 experiment were each divided into triplicate 400 ug samples to generate technical replicate TAILS data. For the second experiment, referred to as SMC2, media was processed separately in triplicate for each condition (Luc1, Luc2, Luc3, WT1, WT2, WT3, EQ1, EQ2, EQ3) using 60 ml of media from 3×15 cm dishes for each process replicate. Inputs from the SMC2 experiment used process replicates of 300 ug each to generate TAILS data. The third experiment used input from cultured Human umbilical vein endothelial cells (HUVEC) from Lifeline Cell Technology grown in VascuLife Media and transduced in Lifeline Basal EC (+bFGF2 10 ng/ml). The HUVEC experiment used the same strategy as the SMC2 experiment, with 40 ml of media from 2×15 cm dishes for each process replicate and used 200 ug each to generate TAILS data. Inputs for process replicate experiments were restricted to the lowest concentration from the 9 parallel samples for SMC2 or HUVEC.
(§3) TMT10 isotopic labeling and negative selection of non-labeled peptides-Sample preparation was performed based on the TAILS protocol from the Overall lab with some modifications. From a single experiment, nine parallel protein samples in 50 mM HEPES pH 8.0, 150 mM NaCl were separately denatured with guanidinium chloride (Sigma, G4505) to reach a final concentration of 2.5M guanidinium chloride and 250 mM HEPES and incubated at 65° C. for 15 min. Reduction was achieved through addition of tris(2-carboxylethyl) phosphine (TCEP) at a final concentration of […] and incubated at 65° C. for 45 min. Alkylation reaction was performed with addition of iodoacetamide (IAA, Sigma, A3221) to a final concentration of 10 mM IAA for 15 min at room temperature in the dark. Following denaturation, reduction and alkylation steps, ten percent of each of the nine parallel protein samples was removed and combined to serve as a pooled reference. Isobaric tags were added to free amine groups using the TMT10plex Isobaric Mass Tagging Kit (ThermoFisher, 90113) with TMT channels randomly assigned to the nine samples and TMT 131 assigned to the pooled reference. […]

mouse ADAMTS7 [3] = assay: TMT10 TAILS N-terminomics, HUVEC experiment (process replicates, trypsin/AspN digest); type: cell-based, human; conditions: HUVEC TAILS experiment; total MS intensity of the N-terminal (neo-N-terminal) peptide identified by TAILS_id
From the text: as §1, §2, §3

[4] = TAILS N-terminal peptide identified in SMC conditioned media (scale-up, fractions), mouse ADAMTS7, value listed per TAILS_id (protein_StartAA)
[5] = SMC rd2 TAILS, AspGluN search, total spectral intensity of the N-terminal peptide (TAILS_id = gene_StartAA cleavage site)
[6] = TAILS N-terminal peptide signal, SMC scale-up fractions, mouse ADAMTS7, label = TAILS_id (gene symbol_StartAA)
[7] = total intensity of the N-terminal peptide spectra, SMC rd2 TAILS fractions, AspN/GluC search

Substance | SMC1 TAILS.total Intensity (mouse ADAMTS7 [1]) | SMC2 TAILS.total Intensity (mouse ADAMTS7 [2]) | TAILS_SMC_Scaleup_fxns_mATS7i (mouse ADAMTS7 [1]; [4]) | ATS7_SMC_rd2_TAILS_frxns_matS7inDB_AspGluN_retry.totalIntensity (mouse ADAMTS7 [2]; [5]) | ATS7_HUVEC_TAILS_frxns_mATS7inDB_AspGluN.total Intensity (mouse ADAMTS7 [3]) | also measured
VIM_333 (LKGTNESLER; listed as Homo sapiens) | 2.04E+08 | 1.10E+08 |  |  |  | TAILS_SMC_Scaleup_fxns_mATS7i (mouse ADAMTS7 [1]; intensity of the N-terminal (TAILS) peptide in SMC scale-up TAILS experiment, fractions, peptide identified by TAILS_id (gene symbol_StartAA)): 2.04E+08; ATS7_SMC_rd2_TAILS_frxns_matS7inDB_AspGluN_retry.totalIntensity (mouse ADAMTS7 [2]; SMC rd2 TAILS, AspGluN digest, total MS intensity of the N-terminal peptide at the given StartAA): 1.10E+08
PPP1R18_295 (LSETLTR; listed as Homo sapiens) | 7.16E+07 | 1.25E+08 | 7.16E+07 | 1.25E+08 |  | 
IGFBP3_31 (SAGLGPVVR; listed as Homo sapiens) | 4.82E+08 | 1.02E+09 | 4.82E+08 | 1.02E+09 |  | 
EWSR1_87 (YSQPVQGYGTGAY; listed as Homo sapiens) |  |  |  |  | 1.50E+08 | 
ASMT_321 (LSSAGFR; listed as Homo sapiens) |  |  |  |  | 2.00E+09 | 
FN1_1743 (WESPQGQVSR; listed as Homo sapiens) |  |  |  |  | 9.68E+08 | 
FBLN2_260 (LGPPAPVQAKAR; listed as Homo sapiens) | 7.69E+08 | 6.60E+09 |  |  |  | TAILS_SMC_Scaleup_fxns_mATS7i (mouse ADAMTS7 [1]; [6]): 7.69E+08; ATS7_SMC_rd2_TAILS_frxns_matS7inDB_AspGluN_retry.totalIntensity (mouse ADAMTS7 [2]; [7]): 6.60E+09
PTBP1_376 (AAAAAGR; listed as Homo sapiens) |  |  |  |  | 2.41E+09 | 
LOX_123 (HWFQAGYSTSR; listed as Homo sapiens) | 1.50E+08 | 6.25E+08 | 1.50E+08 | 6.25E+08 |  | 
BICD1_280 (NNDDKMNGHIHGPLVKLNGDYR; listed as Homo sapiens) |  |  |  |  | 7.87E+09 | 
FBLN2_259 (ALGPPAPVQAKAR; listed as Homo sapiens) | 1.04E+08 | 8.11E+08 |  |  |  | TAILS_SMC_Scaleup_fxns_mATS7i (mouse ADAMTS7 [1]; [6]): 1.04E+08; ATS7_SMC_rd2_TAILS_frxns_matS7inDB_AspGluN_retry.totalIntensity (mouse ADAMTS7 [2]; [7]): 8.11E+08
ZYX_244 (PVSLANTQPR; listed as Homo sapiens) |  |  |  |  | 9.45E+08 | 
CCDC80_66 (LEEPNLQPLQR; listed as Homo sapiens) | 7.99E+09 | 3.94E+08 |  |  |  | TAILS_SMC_Scaleup_fxns_mATS7i (mouse ADAMTS7 [1]; [6]): 7.99E+09; ATS7_SMC_rd2_TAILS_frxns_matS7inDB_AspGluN_retry.totalIntensity (mouse ADAMTS7 [2]; [7]): 3.94E+08
LTBP1_540 (HQQVIPHVYPVAAKTQLGR; listed as Homo sapiens) | 1.90E+09 | 8.09E+08 | 1.90E+09 | 8.09E+08 |  | 
IGFBP3_32 (AGLGPVVR; listed as Homo sapiens) | 2.11E+09 | 5.97E+09 | 2.11E+09 | 5.97E+09 |  | 
LOX_126 (QAGYSTSR; listed as Homo sapiens) | 4.18E+06 |  | 4.18E+06 | 1.03E+08 |  | 
FBN1_53 (LKGPNVCGSR; listed as Homo sapiens) | 8.48E+08 | 2.58E+09 |  |  |  | TAILS_SMC_Scaleup_fxns_mATS7i (mouse ADAMTS7 [1]; [6]): 8.48E+08; ATS7_SMC_rd2_TAILS_frxns_matS7inDB_AspGluN_retry.totalIntensity (mouse ADAMTS7 [2]; [7]): 2.58E+09

Reference: patent US20240368668A1, “SUBSTRATES AND BIOMARKERS OF ADAMTS7” (The Broad Institute, Inc., priority 2021, published 2024)
